Among the data in PMC6829553 are binding values, retold here.

Results are given in words; binding and its absence hold for the method and conditions named. Where a sequence is shown, tags or fusion partners need not be part of it.

For this assay, the target named is T1, AcMYB10C (112-222aa) fused to the BD (Actinidia chinensis cv. Hongyang).
T1 sequence: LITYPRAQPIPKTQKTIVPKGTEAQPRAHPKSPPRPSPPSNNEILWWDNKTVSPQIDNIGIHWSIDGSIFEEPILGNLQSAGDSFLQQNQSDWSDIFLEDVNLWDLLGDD
In words: two-hybrid; yeast strain AH109; BD fusions in pGBKT7, AD fusions in pGADT7; selected on SD/-Leu/-Trp, then growth on SD/-Ade/-His/-Leu/-Trp with 15 mM 3AT; X-alpha-gal to confirm.

In the case of “AcBHLH42-AD (full-length AcbHLH42 in pGADT7) (Actinidia chinensis cv. Hongyang)”, the binding result is given as “no binding”.
